This is a noisy data set.
B1: human tRNA-Pro; a variant is named by its letters at N, in order (parent)
chain: GGCTCGTTGGTCTAGNGGTATGATTCTCGCTTAGGGTGCGAGAGGTCCCGGGTTCNNATCCCGGACGAGCCC

Variants of: B1
Experiment: tRNA 3' processing efficiency (processed reads / all reads, maximum-likelihood estimate) (fraction); higher = more efficient 3' processing
Details: HEK293T; construct: no Pol-II promoter ((-)CMV library)

Variant	tRNA 3' processing efficiency
GGG T8C A14T A20T	0.4
TCA T53A T59C	0.17
TGA G9T G18A T19A T53A	0.17
GGA G17T T53C T54A	0.25
GGG G15C T19G	0.25
TGA T19G C55T	0.43
TGT A20T C55T	0.38
AGA A14T T54C A58C	0.5
GGA A14C G34T T54A	0.5
GGA G18T T19C A58C	0.25
AGA G17A T54A	0.62
GGA T19A T53A T59G	0.25
GTA A14C G17A T59G	0.4
CGA A14T T19A T54A	0.29
GGA T8C T19A C55G	0.25
GTA A14C G15A G17T T19A A58C	0.4
GGC A20G G40A	0.43
ATA A14T A20T	0.29
GGA A33G A58T T59A	0.45
GGA G15A T19A C55T A58T	0.57
GGA T8C A20T A58G	0.17

Variant	tRNA 3' processing efficiency
GGA G50A T53A A58T T59A	0.5
GCG T32C	0.67
GGA G10A G15A	0.33
TGG G15T G35A C55T A58C	0.4
GGA G18T A58T T59A	0.14
TGT G15A	0.67
GGT A20T T53A	0.64
TTA A14G A58T	0.5
TGC A58G	0.07
ATA A14C T19C	0.4
GGG A14G T19G	0.2
GGA T8A G18A G40A	0.17
TGG G17T T59C	0.17
GGA T19C T54A C55T	0.33
CGA T8C C55T	0.25
TGA T8G A33G C55T	0.57
GGA T19C A20T C55T A58G T59C	0.17
TGT A14C	0.29
GGA A33G	0.33
GGA A14T T19G T59G	0.2
CGG G17C	0.5

Part of the list above, in markdown.

| Variant | tRNA 3' processing efficiency |
| --- | --- |
| GGA T8C A20T A58G | 0.17 |
| GGA G50A T53A A58T T59A | 0.5 |
| GCG T32C | 0.67 |
| GGA G10A G15A | 0.33 |
| TGG G15T G35A C55T A58C | 0.4 |
| GGA G18T A58T T59A | 0.14 |
| TGT G15A | 0.67 |
| GGT A20T T53A | 0.64 |
| TTA A14G A58T | 0.5 |
| TGC A58G | 0.07 |
| ATA A14C T19C | 0.4 |
| GGG A14G T19G | 0.2 |
| GGA T8A G18A G40A | 0.17 |
| TGG G17T T59C | 0.17 |
| GGA T19C T54A C55T | 0.33 |
| CGA T8C C55T | 0.25 |

(further entries)

Variant	tRNA 3' processing efficiency
CCG T8G	0.57
GTA A14G A20G A58C T59C	0.62
CTA A14T A20T	0.31
CGA C55A T59A	0.25
GGA T8G G15T T19G A58G	0.25
GGG G15C A20C	0.17
GTA A14G T19G T59G	0.4
TGA A14G G17A C55G T59C	0.43
TGG T8C	0.25
TCT A20T	0.2
GGA G15C T53G A58G T59G	0.2
GGT A14G T19G	0.25
TGG T59G	0.4
CGA A14C C55T	0.1
GGG T8G G15T	0.44
CGG T8C G18A T19C	0.31
GGA T53A A58T T59C	0.15
GGG T19C T59C	0.7
GGA T8C T54A T59C	0.29
AGC G15T A20T	0.25
GGA T19A C55T A58G T59A C62T	0.5

Variant	tRNA 3' processing efficiency
GGG A20T T53G	0.4
GGC A14T T54A	0.5
GGA G9A A14T T59C	0.44
GGA A14G T19G A58C	0.25
TGG G17C T59C	0.1
GGA G15A T19A T53A T59A	0.33
GGA G9A T19A T53G	0.4
TTA A14G G15A	0.5
AGA A14T C55G A58T	0.56
GCT T19A A20T	0.47
TGA T19A T53G	0.17
GGC T19G T53A A58G T59G	0.2
GGA G18A T53G T54A	0.2
TGA A33G A58T	0.99
CGC A58T	0.25
GGA G15C T53C	0.33
CGT A14G G17T T59A	0.15
CGA G9A C55G	0.33
GGC G9T A20G A58T	0.57
CGA A20C T53G A58T	0.43

Variants of: B1
Experiment: tRNA 5' processing efficiency (processed reads / all reads, maximum-likelihood estimate) (fraction); higher = more efficient 5' processing
Details: HEK293T; construct: CMV Pol-II promoter ((+)CMV library, decapped)

Variant	tRNA 5' processing efficiency
TGT G15A	0.17

— the supplement of paper PMC6445147
